Experimental data: PubChem BioAssay AID493014 (National Center for Advancing Translational Sciences (NCATS), 2011)
This is one part of the list. The main result of the screen is listed elsewhere. These columns were measured beside it and carry no call. The list favours compounds with an active or inconclusive main result. Words in brackets tell the shape of the fitted curve; partial curves, single points and poor fits give uncertain potencies.

Assay: qHTS Assay to Find Inhibitors of Chronic Active B-Cell Receptor Signaling
Conditions: ABC-DLBCL IkBa-CBG/CBR reporter, luminescence ratio (green luciferase fused to IkBa over red control in TMD8 lymphoma cells), 4 h
Outline: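 Cell line TMD8 (human ABC DLBCL), stably expressing tet-inducible CBG68-IkBa fusion and CBR; IMDM/0.5% FBS; cpd up to 46 uM; dox induction, 4 h, 37C/5% CO2; dual luminescence; green/red ratio; MG132 control.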

[1] = measured here: CBR red luminescence, cell number

Row | SMILES | AC50 [1] | AC50 (measured here: IkBa-CBG green luminescence)
1 | O=C(Nc1nccs1)c1cn2ccccc2n1 | 1.58 µM [falling, full curve, poor fit] | 
2 | COc1cccc2sc(Nc3nc(-c4ccccn4)cs3)nc12 | 5.62 µM [rising, partial curve, poor fit] | 5.62 µM [falling, single point]
3 | CC(=O)N1CCN(c2ccc(NC(=O)c3ccccc3Br)cc2Cl)CC1 | 4.11 µM [falling, partial curve, poor fit] | 
4 | CCOC(=O)[C@@H]1[C@H]2COc3ccc(Br)cc3[C@@H]2N2C(=O)N(c3cccc(F)c3)C(=O)[C@@]12C | 35.5 µM [falling, single point] | 
5 | O=C(CSc1nc2ccccc2c(=O)n1-c1ccccc1)N1CCCC1 | 16.4 µM [rising, single point] | 
6 | COCCNC(=O)/C(C#N)=C\c1ccc(CNS(=O)(=O)c2ccc(C)cc2)o1 | 0.0891 µM [falling, full curve, poor fit] | 
7 | CC(C)=CCCC(C)NC(=O)NC1CCCCC1 (centres undefined) | 10.3 µM [rising, partial curve, poor fit] | 
8 | Cc1cc(C)cc(N=Cc2[nH]c3ccc(Br)c(Cl)c3c2O)c1 | 20.6 µM [falling, partial curve, poor fit] | 
9 | O=C(Nc1ccsc1C(=O)O)c1ccc(Cl)cc1 | 0.891 µM [falling, full curve] | 
10 | O=C(Nc1nnc(-c2ccc(Cl)cc2)o1)C1CCCCC1 | 31.6 µM [rising, single point] | 
11 | Cc1cc(SCC(=O)Nc2cccc(S(=O)(=O)NC3=NCCCCC3)c2)c(C)cc1Br | 16.4 µM [falling, partial curve] | 
12 | Cc1nc(NC(=O)CCc2ccccc2)ccc1Br | 7.31 µM [falling, partial curve, poor fit] | 
13 | CN(Cc1ccccc1F)C(=O)c1sccc1-c1ccccc1 | 35.5 µM [falling, partial curve, poor fit] | 
14 | NCCCn1c(C(=O)c2ccc(Cl)cc2)c2ccc(C(F)(F)F)cc2[n+]1[O-] | 25.9 µM [falling, single point] | 
15 | CCC1(CC)NC(=O)NC1=O | 6.51 µM [falling, single point] | 
16 | Cc1cc(C(=O)N/N=C/c2cccs2)n[nH]1 | 11.2 µM [falling, partial curve] | 
17 | N#C/C(=C(/O)C(Cl)c1ccccc1)c1nc2ccccc2s1 (centres undefined) | 4.11 µM [falling, partial curve, poor fit] | 
18 | O=C(COc1ccc(S(=O)(=O)NC2CCCCC2)cc1)N1CCN(c2cccc(Cl)c2)CC1 | 0.461 µM [falling, single point] | 

Another view of two compounds above:

| Row | SMILES | AC50 [1] | AC50 (measured here: IkBa-CBG green luminescence) |
| --- | --- | --- | --- |
| 4 | CCOC(=O)[C@@H]1[C@H]2COc3ccc(Br)cc3[C@@H]2N2C(=O)N(c3cccc(F)c3)C(=O)[C@@]12C | 35.5 µM [falling, single point] |  |
| 5 | O=C(CSc1nc2ccccc2c(=O)n1-c1ccccc1)N1CCCC1 | 16.4 µM [rising, single point] |  |
